# Results taken from PubChem BioAssay AID1347076 (National Center for Advancing Translational Sciences (NCATS), 2019).
# Hit rate of the full screen: of about 400,000 compounds, about 13,000 (3.2%) were called active. This list was built around the results that the source calls inconclusive (neither active nor inactive); the mix of calls is not that of the screen. Calls follow the shape of the dose curve; as a rule, active = well fitted cell-killing curve with a large enough effect; inconclusive = small, poorly fitted or top-dose-only effect, or effect the other way; inactive = flat fitted curve, though single readings scatter. Potencies beside an inconclusive call are fits to weak or partial responses and may not hold up.
# Test: qHTS assay for MDR1-selective chemotherapeutics: Primary screen using the drug-selected MDR subline cells KB-V1; also: nearly all actives have a fitted effect of over 60% in size
# Conditions: KB-V1 MDR cells viability, CellTiter-Glo, 72 h; series mostly up to 46.1 µM
# Procedure, shortened: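 Drug-selected KB-V1 cells, grown in DMEM lacking phenol red with 10% FBS, receive compound titrations; after three days at 37 degrees C, surviving cell ATP is quantified by CellTiter-Glo luminescence and responses normalized and curve-fitted.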
# Potency is read from the fitted curve at half-maximal effect.
row,SMILES,Potency
1,COc1ccccc1CCNC(=O)C1CCC(=O)N(C2CCCCCC2)C1 (stereo not drawn),inactive
2,CN(C)c1ccc(/C=C/c2nc3ccccc3s2)c(Cl)c1,"inconclusive: 18.4 µM [cytotoxic, single point]"
3,COc1cc([N+](=O)[O-])ccc1NC(=O)N1CCN(c2cc(-c3noc(C)n3)ccc2C)CC1,"inconclusive: 20.6 µM [cytotoxic, single point]"
4,CCCn1ccc2c(OCC(=O)Nc3ccc(NC(C)=O)cc3)cccc2c1=O,inactive
5,CCN1C(=O)c2cccc3c(S(=O)(=O)Nc4ccncc4)ccc1c23,inactive
6,CCC(CC)C(=O)Nc1nnc(CCc2ccccc2)s1,"inconclusive: 8.2 µM [cytotoxic, partial curve]"
7,COc1ccc(/C=C/C(=O)N2CCN(c3ccccc3)CC2)cc1S(=O)(=O)N1CCOCC1,active: 7.31 µM
8,CCCNC(=O)c1cc2c(c(-c3cccc(-c4cc5ccccc5o4)c3)n1)[C@@H](CCO)N(C(=O)NC(C)C)C2,active: 18.4 µM
9,O=C(NC1CCCCC1)c1cccc2c1C(=O)c1ccc(N3CCC(Cc4ccccc4)CC3)cc1S2(=O)=O,inactive
10,CCN(CC)C(=O)CSc1nnc(SC(C)C(=O)NC2CC2)s1 (stereo not drawn),active: 25.9 µM
11,Oc1ccc(Cl)cc1C=NCCc1ccccc1,inactive
12,CCn1ccc2cc(S(=O)(=O)N3CCCN(C(=O)Nc4ccc(C)c(F)c4)CC3)ccc21,"inconclusive: 7.31 µM [cytotoxic, partial curve]"
13,Cc1ccc(C)c(N(C(=O)c2snc(C(N)=O)c2N)C(C(=O)NCC2CCCO2)c2ccc(C)o2)c1 (stereo not drawn),"inconclusive: 16.4 µM [cytotoxic, single point]"
14,CCc1ccc(OCCCC(=O)Nc2cccc(C(=O)O)c2)cc1,inactive
15,COc1ccc(C(O)Cc2nc3ccccc3n2C)cc1OC (stereo not drawn),inactive
16,COc1ccc(NC(=O)c2ccc3c(=O)n(-c4ccc(OC)cc4OC)c(=S)[nH]c3c2)cc1,"inconclusive: 20.6 µM [cytotoxic, single point]"
17,COc1ccc(-c2noc(CCCC(=O)NC3CCCC3)n2)cc1,"inconclusive: 29.1 µM [cytotoxic, single point]"
18,Cc1c(C(=O)NCc2ccc3c(c2)OCO3)sc(=O)n1Cc1cccc(F)c1,"inconclusive: 20.6 µM [cytotoxic, partial curve]"
19,COc1ccc(CNC(=O)C(C)N2Cc3ccccc3C2=O)cc1 (stereo not drawn),"inconclusive: 29.1 µM [rising, partial curve, poor fit]"
20,CCCN(CC(=O)Nc1ccc(F)c(F)c1F)C(=O)C1CC(=O)N(Cc2ccccc2)C1 (stereo not drawn),inactive
21,N#Cc1c(-c2ccc3c(c2)OCO3)ccn2nc(-c3cccc(C(F)(F)F)c3)nc12,inactive
22,Cc1cccc(N(C)c2nc3ccc(C)cc3n3cnnc23)c1,inactive
23,CC(=O)c1c(C)[nH]c(C(=O)Nc2ccc(F)cc2F)c1C,"inconclusive: 10.3 µM [cytotoxic, partial curve, poor fit]"

row,SMILES,Potency
1,CCN(CC(=O)Nc1ccccc1C(F)(F)F)C(=O)CSCc1ccc(C)cc1,"inconclusive: 7.31 µM [cytotoxic, partial curve]"
2,COc1cc2c(-c3ccc(O)cc3)nc3c(c(C)nn3-c3ccccc3)c2cc1OC,active: 3.66 µM
3,CNC(=S)NNC(=O)c1sccc1OCc1ccccc1,inactive
4,CCS(=O)(=O)N1Cc2ccccc2CC1C(=O)Nc1nc2ccc(C)cc2s1 (stereo not drawn),active: 7.31 µM
5,COc1ccc(NC(=O)NCCCN2CCCC2=O)cc1,inactive
6,COc1ccc2cc3c(N)c(C(=O)NCc4ccco4)sc3nc2c1,"inconclusive: 18.4 µM [cytotoxic, single point]"
7,Cc1nc(-c2ccccc2)sc1CCNC(=O)C(=O)Nc1ccc2c(c1)OCCO2,"inconclusive: 4.11 µM [cytotoxic, partial curve, poor fit]"
8,CS/C(=N\S(=O)(=O)c1cccs1)Nc1cccc(Cl)c1C,"inconclusive: 29.1 µM [cytotoxic, partial curve, poor fit]"
9,CC[C@@H]1Cc2[nH]c(=O)[nH]c(=O)c2[C@H](c2ccc(Cl)cc2)O1,"inconclusive: 6.51 µM [rising, full curve, poor fit]"
10,CC(C)(C)OC(=O)CC1(C#N)c2ccccc2C(Br)=CN1C(=O)c1ccccc1 (stereo not drawn),inactive
11,COc1ccc(NC(=O)CN(C)C(=O)c2ccc3c(c2)NC(=O)CS3)cc1,"inconclusive: 18.4 µM [rising, single point]"
12,O=C(NCc1cccnc1)/C(=C\c1ccc(-c2ccc(Cl)c(Cl)c2)o1)S(=O)(=O)c1ccccc1,active: 4.11 µM
13,COc1cccc(C2=NOC(C(=O)Nc3cc(C)nn3-c3ccccc3)C2)c1OC (stereo not drawn),"inconclusive: 29.1 µM [cytotoxic, single point]"
14,O=C(Nc1nnc(S(=O)(=O)N2CCCCCC2)s1)c1ccccc1Cl,inactive
15,COc1ccc2c(CN3CCN(Cc4ccccc4)CC3)cc(=O)oc2c1,"inconclusive: 23.1 µM [cytotoxic, single point]"
16,CCN(CC)CCNC(=O)NC1CCCCC1,"inconclusive: 29.1 µM [rising, single point]"
17,Oc1ccc(CCc2n[nH]c(=S)n2-c2ccc(F)cc2)cc1,"inconclusive: 29.1 µM [rising, single point]"
18,O=S(=O)(NC(=NCc1ccccc1)c1ccc(F)cc1)c1ccc(Cl)cc1,"inconclusive: 29.1 µM [cytotoxic, single point]"
19,CCOC(=O)C1=C(COC(=O)c2ccc(OC)c(OC)c2OC)NC(=O)NC1C (stereo not drawn),"inconclusive: 8.2 µM [cytotoxic, partial curve]"
20,CC1=C(C(N)=O)C(c2ccc(F)cc2)n2nc(-c3ccc(N(C)C)cc3)nc2N1 (stereo not drawn),inactive
21,CCOC(=O)c1cnc2ccc(C(=O)OC)cc2c1NCCc1ccc(OC)c(OC)c1,"inconclusive: 2.91 µM [cytotoxic, partial curve, poor fit]"
22,O=C(NCCNC(=O)c1ccccn1)c1cccc(F)c1,"inconclusive: 23.1 µM [rising, partial curve, poor fit]"
23,CCOC(=O)N1CCN(c2c(N3CCN(c4cccc(C(F)(F)F)c4)CC3)c(=O)c2=O)CC1,inactive

row,SMILES,Potency
1,O=[N+]([O-])c1ccccc1Nc1nc(-c2cccnc2)cs1,"inconclusive: 18.4 µM [cytotoxic, single point]"
2,O=C(CCCN1C(=O)/C(=C/c2ccc(F)cc2)SC1=S)NC1CCS(=O)(=O)C1 (stereo not drawn),"inconclusive: 8.2 µM [rising, partial curve]"
3,CCOc1ccccc1NC(=O)CN1c2cccc3cccc(c23)S1(=O)=O,"inconclusive: 18.4 µM [cytotoxic, single point]"
4,O=C(Nc1cccc(C(F)(F)F)c1)C1Cc2c(-c3ccccc3)ccnc2O1 (stereo not drawn),inactive
5,CCCCn1c(N)c(N(CCC(C)C)C(=O)COC(=O)Cc2ccc(Cl)cc2)c(=O)[nH]c1=O,inactive
6,CCCCC[C@H]1CCCCC[C@@H](O)C[C@H](O)[C@H](O)/C=C/C(=O)O1,"inconclusive: 29.1 µM [rising, single point]"
7,Cc1ccc(-c2cc(C(=O)N3CCN(C4CCS(=O)(=O)C4)CC3)c3ccccc3n2)cc1 (stereo not drawn),"inconclusive: 18.4 µM [cytotoxic, single point]"
8,O=C(Nc1ccc(-c2nc3ccccc3o2)cc1)c1ccc2c(c1)OCO2,"inconclusive: 6.51 µM [cytotoxic, partial curve]"
9,O=C(/C=C/c1ccccc1)CC(=O)c1ccccc1O,"inconclusive: 18.4 µM [cytotoxic, single point]"
10,CC(C)C(NC(=O)c1ccccc1)C(=O)NCc1ccccn1 (stereo not drawn),inactive
11,CC(C)C[C@H]1CN([C@@H](CC(C)C)CN2CCC[C@@H]2CN2C(=S)NC[C@@H]2Cc2ccc(O)cc2)C(=S)N1CC1CCCCC1,"inconclusive: 29.1 µM [cytotoxic, single point]"
12,CCNC(=S)N=Nc1c(O)[nH]c2ccc([N+](=O)[O-])cc12,"inconclusive: 25.9 µM [cytotoxic, partial curve, poor fit]"
13,CC(Oc1ccc(Cl)cc1Cl)C(=O)/C=C/N(C)C (stereo not drawn),"inconclusive: 20.6 µM [cytotoxic, single point]"
14,COc1ccc(Cn2nnnc2C(c2ccccc2Cl)N2CCN(C)CC2)cc1 (stereo not drawn),"inconclusive: 16.4 µM [cytotoxic, partial curve]"
15,COc1cccc(/C=N/NC(=O)CNC(=O)COc2cccc(C)c2)c1O,"inconclusive: 4.61 µM [cytotoxic, full curve]"
16,Clc1ccccc1-c1csc(Nc2cccnc2)n1,inactive
17,O=C(c1ccccc1)c1ccc(Oc2ccc([N+](=O)[O-])cc2[N+](=O)[O-])cc1,"inconclusive: 18.4 µM [cytotoxic, single point]"
18,CCc1noc(C)c1C(=O)Nc1cc(S(=O)(=O)N2CCCCC2)ccc1N(C)C,"inconclusive: 6.51 µM [cytotoxic, partial curve, poor fit]"
19,Cc1nn(-c2ccccc2)c(C)c1-c1nnc(-c2c(C)nn(-c3ccccc3)c2C)o1,active: 9.2 µM
20,CC(C)(C)OC(=O)N1CCC(c2c(C(=O)NCc3ccc4c(c3)OCO4)cnn2-c2ccccc2Cl)CC1,inactive
21,CCN1C(=O)C(=Cc2cccc(OC)c2Oc2ccc([N+](=O)[O-])cc2[N+](=O)[O-])SC1=S,"inconclusive: 25.9 µM [cytotoxic, single point]"
22,Cc1c(NC(=O)OCCNC(=O)COc2c(Cl)cccc2Cl)sc(=S)n1C,"inconclusive: 29.1 µM [cytotoxic, single point]"

# 14 of the compounds above, with tabs:
row	SMILES	Potency
14	CCc1ccc(OCCCC(=O)Nc2cccc(C(=O)O)c2)cc1	inactive
15	COc1ccc(C(O)Cc2nc3ccccc3n2C)cc1OC (stereo not drawn)	inactive
16	COc1ccc(NC(=O)c2ccc3c(=O)n(-c4ccc(OC)cc4OC)c(=S)[nH]c3c2)cc1	inconclusive: 20.6 µM [cytotoxic, single point]
17	COc1ccc(-c2noc(CCCC(=O)NC3CCCC3)n2)cc1	inconclusive: 29.1 µM [cytotoxic, single point]
18	Cc1c(C(=O)NCc2ccc3c(c2)OCO3)sc(=O)n1Cc1cccc(F)c1	inconclusive: 20.6 µM [cytotoxic, partial curve]
19	COc1ccc(CNC(=O)C(C)N2Cc3ccccc3C2=O)cc1 (stereo not drawn)	inconclusive: 29.1 µM [rising, partial curve, poor fit]
20	CCCN(CC(=O)Nc1ccc(F)c(F)c1F)C(=O)C1CC(=O)N(Cc2ccccc2)C1 (stereo not drawn)	inactive
21	N#Cc1c(-c2ccc3c(c2)OCO3)ccn2nc(-c3cccc(C(F)(F)F)c3)nc12	inactive
22	Cc1cccc(N(C)c2nc3ccc(C)cc3n3cnnc23)c1	inactive
23	CC(=O)c1c(C)[nH]c(C(=O)Nc2ccc(F)cc2F)c1C	inconclusive: 10.3 µM [cytotoxic, partial curve, poor fit]
1	CCN(CC(=O)Nc1ccccc1C(F)(F)F)C(=O)CSCc1ccc(C)cc1	inconclusive: 7.31 µM [cytotoxic, partial curve]
2	COc1cc2c(-c3ccc(O)cc3)nc3c(c(C)nn3-c3ccccc3)c2cc1OC	active: 3.66 µM
3	CNC(=S)NNC(=O)c1sccc1OCc1ccccc1	inactive
4	CCS(=O)(=O)N1Cc2ccccc2CC1C(=O)Nc1nc2ccc(C)cc2s1 (stereo not drawn)	active: 7.31 µM

# Copied from the listing, 2 compounds:
row,SMILES,Potency
7,Cc1ccc(-c2cc(C(=O)N3CCN(C4CCS(=O)(=O)C4)CC3)c3ccccc3n2)cc1 (stereo not drawn),"inconclusive: 18.4 µM [cytotoxic, single point]"
8,O=C(Nc1ccc(-c2nc3ccccc3o2)cc1)c1ccc2c(c1)OCO2,"inconclusive: 6.51 µM [cytotoxic, partial curve]"
